Measurements: US10443043B2, “Methods for making induced pluripotent stem cells” (NEW YORK UNIVERSITY, priority 2015, dated 2019)
Some results were stated once for a whole list of compounds, not compound by compound.

Tested on: GMPs
Experiment: Bulk reprogramming of granulocyte-macrophage progenitors, dox-independent colonies
Format: cell-based, mouse
Details: six days, compound alone
Description: MEFs (Stadtfeld et al., 2008) and hepatoblasts (Gailhouste, 2012) were isolated from E14.5 embryos and GMPs, CMPs, MEP and LSK cells from either fetal liver or adult bone marrow (Akashi et al., 2000). All cell types used for reprogramming experiments were heterozygous for the inducible OKSM cassette, Rosa26-rtTA and the Oct4-GFP reporter. MEFs were expanded in reduced-oxygen conditions (4%) and used at passages 1 or 2. For reprogramming, cells were seeded in ESC media (DMEM with 15% FBS, L-glutamin, penicillin-streptomycin, nonessential amino acids, β-mercaptoethanol and 1000 U/ml LIF) at the desired density on a layer of irradiated feeder cells in presence of 1 mg/ml doxycycline. If applicable, L-Ascorbic acid (50 ng/μl), CHIR99021 (3 μM), TGFβ RI Kinase Inhibitor II (250 nM) and PD032590 (0.75 μM) were added. […] To score factor-independent colonies, dox (and other compounds) were removed by washing cultures twice with PBS and then maintaining them in ESC media for at least three days before colonies were counted by fluorescence microscopy or after alkaline phosphatase staining (Vector Laboratories). For quantification of Oct4-GFP expression, cultures were harvested by trypsin digestion, stained with DAPI or 7-AAD to exclude dead cells, acquired on a LSRII cytometer (BD Biosciences) and analyzed with FlowJo software (Tree Star Inc.). […]

`O=C1O[C@H]([C@@H](O)CO)C(O)=C1O` [AA, ascorbic acid] was tested, and the “decrease in colony numbers compared with 3c” value was 5-10 fold.
